Article PMC7819943, “Rice protein-binding microarrays: a tool to detect cis-acting elements near promoter regions in rice”
Some of the results follow.

The chains behind the UniProt entries cited, without tags or fusion partners.
UniProt Q0JBA9, entry or part of it: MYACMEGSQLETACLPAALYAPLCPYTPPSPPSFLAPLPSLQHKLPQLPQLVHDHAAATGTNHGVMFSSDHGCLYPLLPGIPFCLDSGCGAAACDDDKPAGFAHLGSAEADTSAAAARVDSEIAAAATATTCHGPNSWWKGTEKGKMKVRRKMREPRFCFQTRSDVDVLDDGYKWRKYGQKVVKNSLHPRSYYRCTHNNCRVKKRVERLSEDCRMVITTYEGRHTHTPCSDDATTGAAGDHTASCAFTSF

target: OsWRKY34 (Oryza sativa, UniProt Q0JBA9 1-250); experiment: protein-binding microarray (RPBM); PBS, 2% BSA, 51.3 ng/ul salmon testes DNA, 50 uM zinc acetate, 200 nM TF, 25 C, 1 h; high values mean tight binding; details: protein: recombinant; tags: N-terminal polyhistidine and DsRed monomer fusion (pET32a); label: CyDye5-dUTP incorporated in the synthesized complementary strand; 3' TTTTT single-stranded linker to array surface; dsDNA, one strand shown
How it was run: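 Transcription factors, each fused N-terminally to a polyhistidine tag and DsRed, were expressed in E. coli BL21-CodonPlus and purified on Ni–NTA. A custom Agilent array was made double-stranded by primer extension with Cy5-dUTP and blocked with 2% BSA. It was incubated with 200 nM protein in PBS, 2% BSA, salmon testes DNA and 50 µM zinc acetate at 25 °C for 1 h, then washed. The binding signal is per-feature fluorescence intensity (arbitrary units) read on an Axon 4000B scanner.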

Q: “CACTCGTTTTCAGATCATTTTCCATGGCGCCATGGCGCCTCGGAGTCACCTAGTGCAG” was tested. Which binding signal did it give?
A: 8500 fluorescence intensity (a.u.)

Q: For “ATCCGTATTTTTGTTCCTCCTTTCCTTTCTTTTTGGCAAACGGAGTCACCTAGTGCAG”, which binding signal is on record?
A: 9580 fluorescence intensity (a.u.)

Q: Which binding signal does the source give for “CGTCCTAGCATTTTCTTACTAAATTCTTACTGATGTGTCACGGAGTCACCTAGTGCAG” here?
A: 8180 fluorescence intensity (a.u.)

Q: For “GGCCTCTCAACTGACCCGTCTGCGAAATATGTTTATTTTCCGGAGTCACCTAGTGCAG”, which binding signal is on record?
A: 8060 fluorescence intensity (a.u.)

Q: How did the binding signal turn out when “GTGCTAGTCTCCGCTGCCCCTTTCTCTTGGTCCAACTTACCGGAGTCACCTAGTGCAG” was run?
A: 10500 fluorescence intensity (a.u.)

Q: How did the binding signal turn out when “GTCCGCCTAAAGAAAAACACGCACACACTTCTTCTGCTTCCGGAGTCACCTAGTGCAG” was run?
A: 8770 fluorescence intensity (a.u.)

Q: Which binding signal does the source give for “GGTTATTGCAGCTGTTCTTGGTGTCTGGTGAGTGGTGAGTCGGAGTCACCTAGTGCAG” here?
A: 11800 fluorescence intensity (a.u.)

Q: “TTTTCTCACATGTTTGACCATTCGTCTTAATCAAAAAATTCGGAGTCACCTAGTGCAG” was tested. Which binding signal did it give?
A: 8160 fluorescence intensity (a.u.)

Q: Which binding signal does the source give for “TAGGACGGTTAATTTCGTTGCTCTCCTCACTTCCCAACCGCGGAGTCACCTAGTGCAG” here?
A: 8250 fluorescence intensity (a.u.)

Q: How did the binding signal turn out when “CTAATTTCTATTTTTACGTATACTCAATTAATATCCAATTCGGAGTCACCTAGTGCAG” was run?
A: 8100 fluorescence intensity (a.u.)

Q: Which binding signal does the source give for “CCTGCCCTGTTTTCTACTGTTTGGCACGCACATTTTCATGCGGAGTCACCTAGTGCAG” here?
A: 8200 fluorescence intensity (a.u.)

Q: “AGCTATTTTACACCACGGTTTATTTTCTAGACATTTACTTCGGAGTCACCTAGTGCAG” was tested. Which binding signal did it give?
A: 9500 fluorescence intensity (a.u.)

Q: How did the binding signal turn out when “ATGTACGCACGAACCCATTGCAGATCGCGACACGTTTCCGCGGAGTCACCTAGTGCAG” was run?
A: 9670 fluorescence intensity (a.u.)

Q: “GGAGGTTTGCTTGTTATGGTTCATGGTTCTTTTGATTAGTCGGAGTCACCTAGTGCAG” was tested. Which binding signal did it give?
A: 8130 fluorescence intensity (a.u.)

Q: For “TTATTGATGGTCAAAGTTATTAAAGTTTGACCTCAAATTTCGGAGTCACCTAGTGCAG”, which binding signal is on record?
A: 8400 fluorescence intensity (a.u.)

Q: With “GGGCCCACCCATCACCCCTAACCTAACCGCCGTCGATTCACGGAGTCACCTAGTGCAG” as the sequence, how does the binding signal read?
A: 8850 fluorescence intensity (a.u.)

Q: For “GGCAACCCAACCCTCTGCTGCTACCTCCACCTAACCCAAACGGAGTCACCTAGTGCAG”, which binding signal is on record?
A: 9180 fluorescence intensity (a.u.)

Q: “GTGGGGTTTTCGATGGTGTTTCATTCTTTTTCTCAATGTACGGAGTCACCTAGTGCAG” was tested. Which binding signal did it give?
A: 20300 fluorescence intensity (a.u.)

Q: With “CCGCACCTCTCTCTACACGCACGCGTCTCTCCCATCTCCCCGGAGTCACCTAGTGCAG” as the sequence, how does the binding signal read?
A: 9030 fluorescence intensity (a.u.)

Q: Which binding signal does the source give for “TATGTGCTAATTAACCGTTCCATTTTCCGTGGTGCACAGCCGGAGTCACCTAGTGCAG” here?
A: 8730 fluorescence intensity (a.u.)

Q: How did the binding signal turn out when “ATTGGGACAAACGCCTTCACCTTCTCCATCTGGCTCACCACGGAGTCACCTAGTGCAG” was run?
A: 8150 fluorescence intensity (a.u.)

Q: How did the binding signal turn out when “TTTTGTTTCCGTAAGTTCTCCACCGGCTTCCCTCAATTTACGGAGTCACCTAGTGCAG” was run?
A: 9280 fluorescence intensity (a.u.)

Q: How did the binding signal turn out when “CTTGGCTCTTCATGGCCGCCGCTGCTGCCAACGACGCCGACGGAGTCACCTAGTGCAG” was run?
A: 9940 fluorescence intensity (a.u.)

Q: Which binding signal does the source give for “CAGACCACCCAACTCTACTTCTTCTTCTTCTTCTTCCATCCGGAGTCACCTAGTGCAG” here?
A: 9280 fluorescence intensity (a.u.)

Q: For “TCACCTCGTTTTACGTATCTTCCCAATCTTCTCTATCTCACGGAGTCACCTAGTGCAG”, which binding signal is on record?
A: 9140 fluorescence intensity (a.u.)

Q: With “GCCGCCGCCTCGCCTCCCGCACCGCCCTCGCCGCCGCCAACGGAGTCACCTAGTGCAG” as the sequence, how does the binding signal read?
A: 8840 fluorescence intensity (a.u.)

Q: With “TGGCCGGATGTGGTGTGCAGGGGAGACTCGTCCACCGGCGCGGAGTCACCTAGTGCAG” as the sequence, how does the binding signal read?
A: 8410 fluorescence intensity (a.u.)

Q: Which binding signal does the source give for “AGCTCGTGATTAGCAGATTGCATTTAGTGGGTGGGCTGTCCGGAGTCACCTAGTGCAG” here?
A: 8410 fluorescence intensity (a.u.)

Q: Which binding signal does the source give for “TTCTTGTTGTCCATCTCCATCTCGTCATACACCTCCCAAGCGGAGTCACCTAGTGCAG” here?
A: 10800 fluorescence intensity (a.u.)

Q: Which binding signal does the source give for “ACGATGACACCACCTTGCATATCCAGATGCCTCTGTTTGACGGAGTCACCTAGTGCAG” here?
A: 9810 fluorescence intensity (a.u.)

Q: Which binding signal does the source give for “GCCTTGCTTTTCCTTGTCGAGATTACTCTAGCAATTTAATCGGAGTCACCTAGTGCAG” here?
A: 9420 fluorescence intensity (a.u.)

Q: Which binding signal does the source give for “CCACGCGAGCGCTCGCGCCGCGCGAACCCAACCTTGCTCGCGGAGTCACCTAGTGCAG” here?
A: 8250 fluorescence intensity (a.u.)

Q: “TTCGACACCGGTAATCTTGCTACCTGTCTTTTTTTTTTATCGGAGTCACCTAGTGCAG” was tested. Which binding signal did it give?
A: 11500 fluorescence intensity (a.u.)

Q: For “TGTCATTTTTGTTTCTCAATGTGTATATCAAATTTGTTAACGGAGTCACCTAGTGCAG”, which binding signal is on record?
A: 8070 fluorescence intensity (a.u.)

Q: With “TATTTGTTTTGTTGTTGGCTTGTTATCCTCTATTACACTGCGGAGTCACCTAGTGCAG” as the sequence, how does the binding signal read?
A: 8890 fluorescence intensity (a.u.)

Q: Which binding signal does the source give for “CGTTCGTGTCGTGTGCACGCTGTTCGTATCCGTATCATATCGGAGTCACCTAGTGCAG” here?
A: 10100 fluorescence intensity (a.u.)

Q: For “GTGAAACTTTTTTTTTTTTTTGCGGGGTTCTCACTCTGACCGGAGTCACCTAGTGCAG”, which binding signal is on record?
A: 11000 fluorescence intensity (a.u.)

Q: How did the binding signal turn out when “AGTTAATTTGTACCAAACTCTTAAGCATGGAGGATTTGACCGGAGTCACCTAGTGCAG” was run?
A: 8210 fluorescence intensity (a.u.)

Q: How did the binding signal turn out when “ACGTAACACCTAGCAATTTTCTTCTCGCGAAATAAACAGTCGGAGTCACCTAGTGCAG” was run?
A: 8500 fluorescence intensity (a.u.)

Q: For “GCCCATTTGTTCTTGATCCTATTCTTTGATTCTTTTGTACCGGAGTCACCTAGTGCAG”, which binding signal is on record?
A: 8920 fluorescence intensity (a.u.)

Q: How did the binding signal turn out when “AAAAACGCCCCTTACTTCCAGTTCTCACGGCTTAGTTTTCCGGAGTCACCTAGTGCAG” was run?
A: 8520 fluorescence intensity (a.u.)

Q: With “ACATTGAATTGCACAAACGAATTCCTTGCATCCTCCTCGTCGGAGTCACCTAGTGCAG” as the sequence, how does the binding signal read?
A: 8720 fluorescence intensity (a.u.)

Q: Which binding signal does the source give for “GCTTCCTGTTGTGCTGTAGCGCTGCTGCCGCCCGTTGCGCCGGAGTCACCTAGTGCAG” here?
A: 8150 fluorescence intensity (a.u.)

Q: “CCCTATCCTATATATCGAGCTATCACTACCTACCTCCACCCGGAGTCACCTAGTGCAG” was tested. Which binding signal did it give?
A: 8750 fluorescence intensity (a.u.)

Q: With “ATATTTTGCCTGTACTGTTTGACAACTCATCTTATTCAAACGGAGTCACCTAGTGCAG” as the sequence, how does the binding signal read?
A: 9020 fluorescence intensity (a.u.)

Q: How did the binding signal turn out when “AATCATTTATTATTGTCGGCACATTTTGCAATTTTTGATACGGAGTCACCTAGTGCAG” was run?
A: 10200 fluorescence intensity (a.u.)

Q: For “AACACCACGCCGCGCGCTCCACGGCAACGCAACGCAGGAACGGAGTCACCTAGTGCAG”, which binding signal is on record?
A: 8720 fluorescence intensity (a.u.)

Q: For “ACCACCGTTAACCTATCGTCACCGTCCGCATGAACAAACCCGGAGTCACCTAGTGCAG”, which binding signal is on record?
A: 12900 fluorescence intensity (a.u.)

Q: Which binding signal does the source give for “GCCACCCGCCCGCCGCCGCCGCCGCCGCCGCCGCCGAGCACGGAGTCACCTAGTGCAG” here?
A: 10600 fluorescence intensity (a.u.)

Q: “CACCTTTCTGCAGTTCTGATTCCATTCTTGCAAGTTCTAGCGGAGTCACCTAGTGCAG” was tested. Which binding signal did it give?
A: 8400 fluorescence intensity (a.u.)

Q: With “GCCTGTTCATTTCACATTTTCACTGCTACGTACTCGATCACGGAGTCACCTAGTGCAG” as the sequence, how does the binding signal read?
A: 10200 fluorescence intensity (a.u.)

Q: How did the binding signal turn out when “TGCTCCCTTGCCCACGCCGTCGCCTTTGCATCGCATCCTTCGGAGTCACCTAGTGCAG” was run?
A: 8440 fluorescence intensity (a.u.)

Q: For “CTCTCTCGAGTCTCGAAGAAGACACACACTATTCTCTCTTCGGAGTCACCTAGTGCAG”, which binding signal is on record?
A: 9360 fluorescence intensity (a.u.)

Q: How did the binding signal turn out when “GAAGCGCCGCCGCCGCGTTCACCGTTCGTCCGTTCCGCTCCGGAGTCACCTAGTGCAG” was run?
A: 8080 fluorescence intensity (a.u.)
